In publication PMC11736009 one finds binding data, which are given here for one molecule.

Chains of the proteins cited; added tags and fusions are not shown. Lines headed by an entry give the natural chain unless they say otherwise; changes in a name come on top.
UniProt Q9Z207: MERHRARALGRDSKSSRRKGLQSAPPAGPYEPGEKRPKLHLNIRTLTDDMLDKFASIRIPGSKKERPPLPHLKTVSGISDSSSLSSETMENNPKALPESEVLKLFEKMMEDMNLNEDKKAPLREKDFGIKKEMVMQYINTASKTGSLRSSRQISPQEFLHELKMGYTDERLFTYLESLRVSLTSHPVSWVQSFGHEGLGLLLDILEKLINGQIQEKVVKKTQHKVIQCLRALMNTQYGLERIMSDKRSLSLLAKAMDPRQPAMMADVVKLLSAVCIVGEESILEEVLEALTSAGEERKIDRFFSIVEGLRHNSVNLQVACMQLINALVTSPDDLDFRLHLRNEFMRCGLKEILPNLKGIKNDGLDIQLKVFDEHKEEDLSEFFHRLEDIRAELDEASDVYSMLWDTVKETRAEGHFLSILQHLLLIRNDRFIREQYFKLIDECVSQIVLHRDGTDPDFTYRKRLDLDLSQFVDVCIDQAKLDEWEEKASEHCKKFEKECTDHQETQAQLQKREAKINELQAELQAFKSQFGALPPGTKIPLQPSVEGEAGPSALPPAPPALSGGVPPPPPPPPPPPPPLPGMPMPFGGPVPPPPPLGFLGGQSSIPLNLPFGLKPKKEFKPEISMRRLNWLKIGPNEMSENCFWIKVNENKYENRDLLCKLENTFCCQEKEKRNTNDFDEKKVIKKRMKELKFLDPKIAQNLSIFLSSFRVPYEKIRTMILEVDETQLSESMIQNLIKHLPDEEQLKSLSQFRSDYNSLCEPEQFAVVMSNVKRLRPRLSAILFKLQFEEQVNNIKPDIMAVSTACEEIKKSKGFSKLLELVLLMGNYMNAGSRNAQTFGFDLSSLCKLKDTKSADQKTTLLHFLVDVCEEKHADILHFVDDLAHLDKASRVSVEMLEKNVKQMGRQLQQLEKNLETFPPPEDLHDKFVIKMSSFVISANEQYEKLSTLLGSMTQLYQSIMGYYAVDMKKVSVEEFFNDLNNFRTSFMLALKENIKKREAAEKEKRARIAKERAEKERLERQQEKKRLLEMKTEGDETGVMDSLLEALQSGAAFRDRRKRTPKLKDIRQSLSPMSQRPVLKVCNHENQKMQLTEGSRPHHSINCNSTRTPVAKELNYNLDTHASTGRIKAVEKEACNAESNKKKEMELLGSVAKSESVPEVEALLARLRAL

These are yes or no findings as the source states them, for the method shown. In cells and extracts the contact can be indirect. These calls come from enrichment with a bait or labelling near it, and not all partners need be listed.

In the assay the target is full-length Diaph3-M1041A-Flag (mouse) (UniProt Q9Z207). In words: affinity purification with mass spectrometry; Diaph3-M1041A-Flag overexpressed in HEK293T, 48 h, MG132 for 6 h; immunoprecipitation with Flag antibodies, SDS-PAGE, in-gel trypsin digest, LC-MS/MS; search against UniProt Homo sapiens.

B1: Fbxo3 (endogenous, found by mass spectrometry) (protein, UniProt Q9UK99 1-471)
chain: MAAMETETAPLTLESLPTDPLLLILSFLDYRDLINCCYVSRRLSQLSSHDPLWRRHCKKYWLISEEEKTQKNQCWKSLFIDTYSDVGRYIDHYAAIKKAWDDLKKYLEPRCPRMVLSLKEGAREEDLDAVEAQIGCKLPDDYRCSYRIHNGQKLVVPGLLGSMALSNHYRSEDLLDVDTAAGGFQQRQGLKYCLPLTFCIHTGLSQYIAVEAAEGRNKNEVFYQCPDQMARNPAAIDMFIIGATFTDWFTSYVKNVVSGGFPIIRDQIFRYVHDPECVATTGDITVSVSTSFLPELSSVHPPHYFFTYRIRIEMSKDALPEKACQLDSRYWRITNAKGDVEEVQGPGVVGEFPIISPGRVYEYTSCTTFSTTSGYMEGYYTFHFLYFKDKIFNVAIPRFHMACPTFRVSIARLEMGPDEYEEMEEEEEEEEEEDEDDDSADMDESDEDDEEERRRRVFDVPIRRRRCSRLF
On to B1, for which the binding entry is recorded as “binds”.
